Changes are numbered by the printed parent chain. The exact form of at least one protein or probe is not confirmed. Where a protein sequence is shown, tags need not be part of it. For some assays here: Whether high values mean tight binding is not given here for every scale.
Key:
Fis WT = molecular target: T1, Fis WT (UniProt P0A6R3); assay: EMSA; settings: EMSA: 20 mM Hepes pH 7.5, 0.15 M NaCl, 5% glycerol, 0.5 mg/ml BSA, 1 mM EDTA, 1 mM DTT, 0.1 nM 32P 27 bp probe, 50 ug/ml poly dI/dC, temperature not stated, recombinant protein, label: 5'-32P
T1 sequence (looked up, limits assumed): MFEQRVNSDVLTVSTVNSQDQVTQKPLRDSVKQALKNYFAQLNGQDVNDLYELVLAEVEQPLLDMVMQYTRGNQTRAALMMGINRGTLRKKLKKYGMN

Fis T75A = molecular target: T2, Fis T75A (UniProt P0A6R3); assay: EMSA; settings: EMSA: 20 mM Hepes pH 7.5, 0.15 M NaCl, 5% glycerol, 0.5 mg/ml BSA, 1 mM EDTA, 1 mM DTT, 0.1 nM 32P 27 bp probe, 50 ug/ml poly dI/dC; temperature not stated; recombinant protein; label: 5'-32P
T2 sequence (looked up, limits assumed): T1 sequence (looked up, limits assumed) with T75A

## AAATTAGTTTGAATTTTGAGCTAATTT (double strand) [F1±8A]
Fis WT; t1/2 5 min
  Kd: 0.0021 µM

## AAATTGGTTTGAATTTTGAGCCAATTT (double strand) [F1±8G]
Fis WT; t1/2 <0.25 min, Table 3 gives error 0.8
  Kd: 0.03 µM

## AAATTTGGAGGAATTTTCTCCAAATTT (double strand) [F32]
Fis WT; t1/2 too fast to detect
  Kd: 0.028 µM

## AAATTTGTAGGAATTTTCTGCAAATTT (double strand) [F31]
Fis WT; t1/2 too fast to detect
  binding signal (fold weaker than F1): 100

## AAATTTGTTTGAGCGTTGAGCAAATTT (double strand) [F28]
Fis T75A
  Kd: > 1 µM
